Measurements reported in PubChem BioAssay AID686938 (Drosophila RNAi Screening Center, 2013).

Screen: 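Looking for CRAC channel components and the factors controlling them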 (primary screen)
System: Drosophila S2R+ cells
Reagent: long dsRNA against Drosophila genes, about 0.25 µg dsRNA per well, roughly 10,000 cells
Time to read-out: 5 days of knock-down before the calcium assay
Conditions: thapsigargin (SERCA pump blocker) to empty calcium stores; entry signal taken 4 min after adding it
Read-out: 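Per-well fluo-4 fluorescence in two replicates, unnormalised, measured in resting cells and 4 min after store depletion by the SERCA blocker thapsigargin; ratio of the two present in few wells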
Reading the numbers: calcium entry signal: higher = stronger calcium signal after store depletion; entry to resting ratio: higher = more calcium entry relative to resting level; resting calcium signal: higher = higher resting calcium signal
Hit rule: 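Hit if the duplicate-averaged plate z-score for entry over resting signal is under −3; wells with weak total dye signal (Fmax z < −2) or more than 5 off-targets removed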
Meaning of the calls: active = strongly reduced calcium entry; inactive = no strong reduction
In all, the deposit lists about 23,000 reagents; below is an unselected part of those with a known target gene and a result. In the full data, 75 (0.33%) got an active call. 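Raw plate signals without normalisation; calls rest on plate z-scores that were not deposited; ratio present for only 364 wells.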 Entries without a mark were called inactive. Names joined by + are all predicted targets of the reagent. Not stated in the record: the dose of the treatment.

gene knocked down	PubChem SID	calcium entry signal, replicate 1 (fluorescence units)	calcium entry signal, replicate 2 (fluorescence units)	entry to resting ratio	resting calcium signal, replicate 1 (fluorescence units)	resting calcium signal, replicate 2 (fluorescence units)
fd3F + CR42499	SID104197952	1.99e7	2.60e7		1.06e7	1.22e7
fd3F + CR42499	SID104197953	2.43e7	2.53e7		1.22e7	1.17e7
Pex16	SID104191542	3.52e7	4.57e7		1.63e7	3.12e7
Zmynd10	SID104189618	3.27e7	4.21e7		1.63e7	1.91e7
CG17738	SID104195049	3.05e7	2.44e7		1.79e7	1.38e7
tei	SID104187408	4.63e7	3.46e7		2.29e7	1.76e7
Ilp1	SID104189966	3.24e7	4.95e7		1.77e7	2.17e7
CG7519	SID104191626	2.55e7	3.32e7		1.13e7	1.54e7
hop	SID104200132	2.45e7	4.20e7		1.22e7	2.00e7
hop	SID104202691	3.57e7	3.58e7		1.82e7	1.78e7
Acbp5	SID104190340	3.18e7	4.36e7		1.49e7	1.81e7
Osi11	SID104192074	4.19e7	2.67e7		1.87e7	1.30e7
CG31496	SID104192339	3.57e7	2.13e7		1.87e7	1.16e7

Just “resting calcium signal, replicate 1 (fluorescence units)”, for 4 of the entries above:
Pex16 [SID104191542]: 1.63e7
Zmynd10 [SID104189618]: 1.63e7
CG17738 [SID104195049]: 1.79e7
tei [SID104187408]: 2.29e7

The listing continues:
gene knocked down	PubChem SID	calcium entry signal, replicate 1 (fluorescence units)	calcium entry signal, replicate 2 (fluorescence units)	entry to resting ratio	resting calcium signal, replicate 1 (fluorescence units)	resting calcium signal, replicate 2 (fluorescence units)
CG8773	SID104196236	4.54e7	4.96e7		1.75e7	1.96e7
CG42523	SID104180043	5.28e7	3.86e7		2.44e7	1.81e7
GstE4	SID104186466	6.75e7	6.50e7		2.72e7	2.94e7
bbx + waw	SID104200367	4.54e7	4.92e7		2.07e7	2.28e7
bbx + waw	SID104200381	4.69e7	3.67e7		1.97e7	1.55e7
CG14777	SID104198355	4.19e7	4.60e7	2	2.04e7	1.89e7
sut3	SID104187494	2.76e7	4.39e7		1.37e7	1.95e7
Arv1	SID104191283	3.55e7	3.18e7		1.81e7	1.62e7
CG5828	SID104182692	3.94e7	3.00e7		1.87e7	1.40e7
ssp2	SID104190844	2.96e7	3.76e7		1.42e7	2.56e7
tHMG2	SID104195974	3.09e7	4.07e7		4.63e7	1.90e7
